Experimental data published in PMC8669001.
No constants are given. Whether binding was seen depends on the method and setting. Binding seen in cells or lysates may run through a third protein. Some results given as binding are weak or reduced against the parent protein; the word gives no strength.

Chains of the proteins cited; added tags and fusions are not shown. Residues count along the entry.
UniProt Q9QY81, residues 27-1886: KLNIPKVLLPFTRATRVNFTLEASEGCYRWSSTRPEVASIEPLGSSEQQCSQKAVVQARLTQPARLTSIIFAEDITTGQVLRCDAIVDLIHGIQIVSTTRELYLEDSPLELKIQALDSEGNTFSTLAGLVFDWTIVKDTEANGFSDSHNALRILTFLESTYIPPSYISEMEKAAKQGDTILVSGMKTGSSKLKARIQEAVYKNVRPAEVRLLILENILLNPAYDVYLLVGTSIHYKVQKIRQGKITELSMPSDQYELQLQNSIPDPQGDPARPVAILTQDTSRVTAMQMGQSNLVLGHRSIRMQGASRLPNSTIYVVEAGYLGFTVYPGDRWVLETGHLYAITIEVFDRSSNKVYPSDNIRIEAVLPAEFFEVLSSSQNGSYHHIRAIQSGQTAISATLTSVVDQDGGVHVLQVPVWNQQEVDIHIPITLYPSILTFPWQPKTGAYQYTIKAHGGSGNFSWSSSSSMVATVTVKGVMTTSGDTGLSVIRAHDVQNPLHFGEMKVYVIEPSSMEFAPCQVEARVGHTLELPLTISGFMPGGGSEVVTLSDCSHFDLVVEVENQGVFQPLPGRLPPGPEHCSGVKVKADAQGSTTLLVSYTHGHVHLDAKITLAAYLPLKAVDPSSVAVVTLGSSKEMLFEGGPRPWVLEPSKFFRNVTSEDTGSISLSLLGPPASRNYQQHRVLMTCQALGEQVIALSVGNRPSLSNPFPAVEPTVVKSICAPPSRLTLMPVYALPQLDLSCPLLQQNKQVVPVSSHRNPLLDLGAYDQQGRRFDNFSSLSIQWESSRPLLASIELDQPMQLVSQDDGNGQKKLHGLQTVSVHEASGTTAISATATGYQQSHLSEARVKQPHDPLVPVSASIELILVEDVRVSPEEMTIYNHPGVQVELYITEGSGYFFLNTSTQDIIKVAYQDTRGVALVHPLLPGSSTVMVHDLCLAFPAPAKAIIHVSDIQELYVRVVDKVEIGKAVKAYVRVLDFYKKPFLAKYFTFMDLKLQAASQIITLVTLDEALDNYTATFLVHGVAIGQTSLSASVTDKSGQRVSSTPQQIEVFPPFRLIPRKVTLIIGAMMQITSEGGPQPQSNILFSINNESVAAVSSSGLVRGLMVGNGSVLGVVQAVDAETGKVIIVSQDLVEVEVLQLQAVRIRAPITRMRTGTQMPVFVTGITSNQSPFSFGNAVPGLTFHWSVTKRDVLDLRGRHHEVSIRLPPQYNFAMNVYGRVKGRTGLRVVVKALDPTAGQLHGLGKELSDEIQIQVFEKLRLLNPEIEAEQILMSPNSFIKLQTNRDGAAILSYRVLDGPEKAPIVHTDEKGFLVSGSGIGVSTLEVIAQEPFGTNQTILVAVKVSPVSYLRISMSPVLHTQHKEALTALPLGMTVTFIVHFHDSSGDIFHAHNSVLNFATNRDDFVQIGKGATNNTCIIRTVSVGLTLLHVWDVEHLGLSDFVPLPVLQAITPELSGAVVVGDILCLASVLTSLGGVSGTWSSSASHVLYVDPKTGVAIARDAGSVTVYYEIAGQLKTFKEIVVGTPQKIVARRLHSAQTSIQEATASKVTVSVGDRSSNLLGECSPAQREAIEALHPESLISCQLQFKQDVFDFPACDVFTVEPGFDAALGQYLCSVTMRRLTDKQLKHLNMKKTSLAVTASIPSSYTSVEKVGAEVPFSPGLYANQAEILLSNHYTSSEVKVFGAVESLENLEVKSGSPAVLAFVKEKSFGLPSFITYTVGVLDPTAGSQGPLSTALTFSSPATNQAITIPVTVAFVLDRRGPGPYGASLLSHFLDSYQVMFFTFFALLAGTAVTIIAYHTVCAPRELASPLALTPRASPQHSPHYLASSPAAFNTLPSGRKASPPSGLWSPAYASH

B1: SUZ12, Q80U70 1-741 (protein)
chain: MAPQKHGGGGGGGSGPSAGSGGGGFGGSAAAVAAAASGGKSGGGGCGGGGSYSASSSSAAAAAAAAGAAVLPVKKPKMEHVQADHELFLQAFEKPTQIYRFLRTRNLIAPIFLHRTLTYMSHRNSRTSIKRKTFKVDDMLSKVEKMKGEQESHSLSAHLQLTFTGFFHKNDKPSQNSENEQNSVTLEVLLVKVCHKKRKDVSCPIRQVPTGKKQVPLNPDLNQTKPGNFPSLAVSSNEFEPSNSHMVKSYSLLFRVTRPGRREFNGMINGETNENIDVSEELPARRKRNREDGEKTFVAQMTVFDKNRRLQLLDGEYEVAMQEMEECPISKKRATWETILDGKRLPPFETFSQGPTLQFTLRWTGETNDKSTAPVAKPLATRNSESLHQENKPGSVKPAQTIAVKETLTTELQTRKEKDNSNESRQKLRIFYQFLYNNNTRQQTEARDDLHCPWCTLNCRKLYSLLKHLKLCHSRFIFNYVYHPKGARIDVSINECYDGSYAGNPQDIHRQPGFAFSRNGPVKRTPITHILVCRPKRTKASMSEFLESEDGEVEQQRTYSSGHNRLYFHSDTCLPLRPQEMEVDSEDEKDPEWLREKTITQIEEFSDVNEGEKEVMKLWNLHVMKHGFIADNQMNHACMLFVENYGQKIIKKNLCRNFMLHLVSMHDFNLISIMSIDKAVTKLREMQQKLEKGESATPSNEEIAEEQNGTANGFSETNSKEKALETDGVSGVPKQSKKQKL
B2: SUN2 (protein, UniProt Q8BJS4 1-731)
chain: MSRRSQRLTRYSQDDNDGGSSSSGASSVAGSQGTVFKDSPLRTLKRKSSNMKHLSPAPQLGPSSDSHTSYYSESVVRESYIGSPRAVSLARSALLDDHLHSEPYWSGDLRGRRRRGTGGSESSKANGLTAESKASEDFFGSSSGYSSEDDLAGYTDSDQHSSGSRLRSAASRAGSFVWTLVTFPGRLFGLLYWWIGTTWYRLTTAASLLDVFVLTRSRHFSLNLKSFLWFLLLLLLLTGLTYGAWHFYPLGLQTLQPAVVSWWAAKESRKQPEVWESRDASQHFQAEQRVLSRVHSLERRLEALAADFSSNWQKEAIRLERLELRQGAAGHGGGSSLSHEDALSLLEGLVSRREATLKEDLRRDTVAHIQEELATLRAEHHQDSEDLFKKIVQASQESEARVQQLKTEWKSMTQEAFQESSVKELGRLEAQLASLRQELAALTLKQNSVADEVGLLPQKIQAARADVESQFPDWIRQFLLGDRGARSGLLQRDEMHAQLQELENKILTKMAEMQGKSAREAAASLGQILQKEGIVGVTEEQVHRIVKQALQRYSEDRIGMVDYALESGGASVISTRCSETYETKTALLSLFGIPLWYHSQSPRVILQPDVHPGNCWAFQGPQGFAVVRLSARIRPTAVTLEHVPKALSPNSTISSAPKDFAIFGFDEDLQQEGTLLGTFAYDQDGEPIQTFYFQASKMATYQVVELRILTNWGHPEYTCIYRFRVHGEPAH
B3: SUN1 (protein, UniProt Q9D666 1-913)
chain: MDFSRLHTYTPPQCVPENTGYTYALSSSYSSDALDFETEHKLEPVFDSPRMSRRSLRLVTTASYSSGDSQAIDSHISTSRATPAKGRETRTVKQRRSASKPAFSINHLSGKGLSSSTSHDSSCSLRSATVLRHPVLDESLIREQTKVDHFWGLDDDGDLKGGNKAATQGNGELAAEVASSNGYTCRDCRMLSARTDALTAHSAIHGTTSRVYSRDRTLKPRGVSFYLDRTLWLAKSTSSSFASFIVQLFQVVLMKLNFETYKLKGYESRAYESQSYETKSHESEAHLGHCGRMTAGELSRVDGESLCDDCKGKKHLEIHTATHSQLPQPHRVAGAMGRLCIYTGDLLVQALRRTRAAGWSVAEAVWSVLWLAVSAPGKAASGTFWWLGSGWYQFVTLISWLNVFLLTRCLRNICKVFVLLLPLLLLLGAGVSLWGQGNFFSLLPVLNWTAMQPTQRVDDSKGMHRPGPLPPSPPPKVDHKASQWPQESDMGQKVASLSAQCHNHDERLAELTVLLQKLQIRVDQVDDGREGLSLWVKNVVGQHLQEMGTIEPPDAKTDFMTFHHDHEVRLSNLEDVLRKLTEKSEAIQKELEETKLKAGSRDEEQPLLDRVQHLELELNLLKSQLSDWQHLKTSCEQAGARIQETVQLMFSEDQQGGSLEWLLEKLSSRFVSKDELQVLLHDLELKLLQNITHHITVTGQAPTSEAIVSAVNQAGISGITEAQAHIIVNNALKLYSQDKTGMVDFALESGGGSILSTRCSETYETKTALLSLFGVPLWYFSQSPRVVIQPDIYPGNCWAFKGSQGYLVVRLSMKIYPTTFTMEHIPKTLSPTGNISSAPKDFAVYGLETEYQEEGQPLGRFTYDQEGDSLQMFHTLERPDQAFQIVELRVLSNWGHPEYTCLYRFRVHGEPIQ

Columns and labels:
[1] = biological target: EZH2 (mouse (endogenous in 4T1)), Q61188; experiment: co-IP; nuclear lysates (Nuclear Complex Co-IP Kit) of 4T1 cells, including sg-Ctrl and Nup210 KO cells; 200–500 μg lysate with 2 μg antibody and Dynabeads Protein G overnight at 4 °C, western blot; conditions: remark: other sources report otherwise
[2] = biological target: NUP210-Myc (stably overexpressed in 4T1 cells) (mouse) (UniProt Q9QY81); experiment: as above

| Binder | binding [1] | binding [2] |
| --- | --- | --- |
| B1 | binds | – |
| B2 | – | binds |
| B3 | – | no binding |
